{
  "source": "patent US10751324B2",
  "about": "“Treatment of TNF- alpha cytotoxicity” (The University of Chicago, priority 2016, dated 2020)",
  "system": "wild type mice challenged with E. coli",
  "assay": "Bacterial infusion (E. coli i.p.) sepsis model, mortality rate",
  "assay_type": "in vivo, mouse",
  "conditions": "2.5 mg/kg i.p. 6 hours before E. coli (5×10^7 CFU, i.p.); n=6, p<0.01; FIG. 20A",
  "note": "At least one structure is not confirmed: it was looked up by name or label, or the drawing left a doubt.",
  "data": [
    {"smiles": "CN1CCN(CCOc2cc(OC3CCOCC3)c3c(Nc4c(Cl)ccc5c4OCO5)ncnc3c2)CC1", "note": "[saracatinib]", "values": [
      {"measurement": "bacterial infection-induced severe sepsis (mortality rate)", "result": "inhibit"}
    ]}
  ]
}
